This assay has as its target T1, Mc-VHA-H fused to YFP (M. crystallinum) (UniProt Q8GUB3).
T1 sequence: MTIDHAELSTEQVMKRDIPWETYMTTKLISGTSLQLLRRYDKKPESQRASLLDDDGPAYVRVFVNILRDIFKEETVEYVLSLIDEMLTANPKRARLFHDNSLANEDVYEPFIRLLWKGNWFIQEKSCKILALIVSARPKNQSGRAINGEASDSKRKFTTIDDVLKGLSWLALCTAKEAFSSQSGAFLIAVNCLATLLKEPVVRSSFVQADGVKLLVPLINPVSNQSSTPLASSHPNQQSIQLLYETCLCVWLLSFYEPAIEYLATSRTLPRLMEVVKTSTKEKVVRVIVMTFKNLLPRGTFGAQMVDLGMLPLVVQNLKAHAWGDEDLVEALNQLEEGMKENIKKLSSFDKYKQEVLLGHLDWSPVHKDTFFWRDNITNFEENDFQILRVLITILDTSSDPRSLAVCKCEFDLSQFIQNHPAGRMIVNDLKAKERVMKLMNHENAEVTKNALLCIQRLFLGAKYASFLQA
In words: FRET or BRET; in vivo FRET (CFP donor, YFP acceptor) in co-transformed onion epidermis cells; emission spectra before and after photobleaching of the acceptor.

Protein sequences, listed by entry. Tags and fused reporters are not part of them.
UniProt Q8GUB5: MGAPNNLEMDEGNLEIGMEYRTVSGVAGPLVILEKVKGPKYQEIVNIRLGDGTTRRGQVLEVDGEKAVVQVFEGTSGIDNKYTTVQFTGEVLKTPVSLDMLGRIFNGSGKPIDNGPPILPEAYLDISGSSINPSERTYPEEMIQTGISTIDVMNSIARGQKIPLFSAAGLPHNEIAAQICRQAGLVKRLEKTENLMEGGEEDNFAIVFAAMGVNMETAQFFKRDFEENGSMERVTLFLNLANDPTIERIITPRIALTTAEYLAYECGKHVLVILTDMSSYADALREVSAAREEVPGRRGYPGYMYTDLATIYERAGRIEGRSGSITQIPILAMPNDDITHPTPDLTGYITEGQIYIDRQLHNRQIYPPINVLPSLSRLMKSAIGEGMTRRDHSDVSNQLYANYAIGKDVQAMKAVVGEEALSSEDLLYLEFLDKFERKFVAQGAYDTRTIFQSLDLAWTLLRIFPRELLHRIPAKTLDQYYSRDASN

The record followed here is PMC516168.

No constants are given. Whether binding was seen depends on the method and setting. Binding seen in cells or lysates may run through a third protein. Some binding calls cover weakened binding; strength is not graded here. Sequences can lack the tags named with a protein.

In the case of “Mc-VHA-B fused to CFP (from UniProt Q8GUB5 1-487)”, the binding entry is listed as “binds weakly”.
